{"source": "PubChem BioAssay AID1508597 (Cure First, 2020)", "aim": "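Knock-downs altering ovarian cancer cell survival with or without PARP inhibitor rucaparib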 (primary screen)", "cell system": "human ovarian carcinoma lines grown from tumours: OCI-P5x (papillary serous) and OCI-C5x (clear cell)", "knock-down reagent": "siRNA pool against human genes, 1.25 pmol siRNA per well", "duration": "72 h or 96 h, depending on the cell culture", "treatment": "rucaparib 20 µM (about IC30) or vehicle, present until read-out", "rucaparib or vehicle": "Rucaparib", "cell line": "OCI-P5x (serous)", "measured": "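ATP luminescence measured at 72 or 96 h according to the culture, then normalised and expressed as percent viability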", "reading the numbers": "viability, normalised: higher = more viable cells remaining", "active means": "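Active when normalised viability falls below 80 percent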", "calls": "active = viability under 80%; inactive = viability 80% or more", "note": "This is an unselected part of the about 2,100 reagents, in one setting of the screen. 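Calls flag viability under 80% in either arm, not effects specific to rucaparib; the reference for percent is not stated.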 Entries without a mark were called inactive. A reagent listed more than once was tested more than once; the source does not tell the runs apart. Not stated in the record: the 100% reference."}
{"gene":"TCF3","technical replicate":"1","viability, normalised (%)":"58.7 (active)"}
{"gene":"TCF3","technical replicate":"2","viability, normalised (%)":"64.3 (active)"}
{"gene":"TCF3","technical replicate":"3","viability, normalised (%)":"65.1 (active)"}
{"gene":"XRCC5","technical replicate":"1","viability, normalised (%)":80.3}
{"gene":"XRCC5","technical replicate":"2","viability, normalised (%)":"75 (active)"}
{"gene":"XRCC5","technical replicate":"3","viability, normalised (%)":"78.7 (active)"}
{"gene":"DCLRE1C","technical replicate":"1","viability, normalised (%)":"63.6 (active)"}
{"gene":"DCLRE1C","technical replicate":"1","viability, normalised (%)":99.9}
{"gene":"DCLRE1C","technical replicate":"2","viability, normalised (%)":"79.1 (active)"}
{"gene":"DCLRE1C","technical replicate":"2","viability, normalised (%)":"58.1 (active)"}
{"gene":"DCLRE1C","technical replicate":"3","viability, normalised (%)":"72.1 (active)"}
{"gene":"DCLRE1C","technical replicate":"3","viability, normalised (%)":"56.7 (active)"}
{"gene":"POLG","technical replicate":"1","viability, normalised (%)":91.4}
{"gene":"POLG","technical replicate":"2","viability, normalised (%)":82.5}
{"gene":"POLG","technical replicate":"3","viability, normalised (%)":"69.8 (active)"}
{"gene":"MIS18BP1","technical replicate":"1","viability, normalised (%)":"76.2 (active)"}
{"gene":"MIS18BP1","technical replicate":"2","viability, normalised (%)":85.2}
{"gene":"MIS18BP1","technical replicate":"3","viability, normalised (%)":82.5}
{"gene":"TP73","technical replicate":"1","viability, normalised (%)":"63.8 (active)"}
{"gene":"TP73","technical replicate":"2","viability, normalised (%)":"58.1 (active)"}
{"gene":"TP73","technical replicate":"3","viability, normalised (%)":"55.8 (active)"}

A run of entries taken from the entries so far, for reference:
{"gene":"MIS18BP1","technical replicate":"1","viability, normalised (%)":"76.2 (active)"}
{"gene":"MIS18BP1","technical replicate":"2","viability, normalised (%)":85.2}
{"gene":"MIS18BP1","technical replicate":"3","viability, normalised (%)":82.5}
